These are yes or no findings as the source states them, for the method shown. Binding can be weak; no strength is given.
Target: His-tagged SsaNΔ89 (SPI-2 T3SS ATPase SsaN, residues Q90-E433) (Salmonella enterica serovar Typhimurium) (UniProt P74857)
Experiment: SEC; 320 µl SrcA (0.1 mg/ml) mixed with 40.8 µl SsaN (8.84 mg/ml) at room temperature for 2 h; Superdex S200 10/300GL; peaks verified by anti-His western blot and LC-MS/MS; both purified

Substance: His-tagged SrcA (SsrB-regulated chaperone A, STM2138) (from UniProt Q8ZNP3)
- binding: binds

— article PMC2816692, “Structural and Biochemical Characterization of SrcA, a Multi-Cargo Type III Secretion Chaperone in Salmonella Required for Pathogenic Association with a Host” (PLoS Pathogens, 2010)
